Paper PMC7819943, “Rice protein-binding microarrays: a tool to detect cis-acting elements near promoter regions in rice”
The list shows a part of the results.

By UniProt entry, the sequences of proteins in these tests, tags left out.
UniProt Q0JBA9, entry or part of it: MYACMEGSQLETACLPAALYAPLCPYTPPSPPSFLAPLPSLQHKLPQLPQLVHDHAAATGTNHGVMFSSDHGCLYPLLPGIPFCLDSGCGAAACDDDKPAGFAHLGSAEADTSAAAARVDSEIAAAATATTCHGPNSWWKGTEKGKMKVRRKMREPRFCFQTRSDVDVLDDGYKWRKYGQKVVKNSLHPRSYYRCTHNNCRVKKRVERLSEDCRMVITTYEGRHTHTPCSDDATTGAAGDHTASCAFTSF

Each sequence was assayed against OsWRKY34 (Oryza sativa, UniProt Q0JBA9 1-250) (assay: protein-binding microarray (RPBM); PBS, 2% BSA, 51.3 ng/ul salmon testes DNA, 50 uM zinc acetate, 200 nM TF, 25 C, 1 h; high values mean tight binding). Conditions: protein: recombinant; tags: N-terminal polyhistidine and DsRed monomer fusion (pET32a); label: CyDye5-dUTP incorporated in the synthesized complementary strand; 3' TTTTT single-stranded linker to array surface; dsDNA, one strand shown.
Summary of the method: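 Polyhistidine-tagged DsRed fusions of transcription factors, joined at the N-terminus, were expressed in E. coli BL21-CodonPlus and isolated on Ni–NTA. They were incubated at 200 nM for 1 h at 25 °C on a custom Agilent array, double-stranded and BSA-blocked, in PBS with 2% BSA, salmon testes DNA and 50 µM zinc acetate. The binding signal is per-feature fluorescence intensity (arbitrary units) read on an Axon 4000B scanner after washing.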
With “ACCTGCTTTGCCATGGTTCTCTTCCTCCTCCAACTCTGCCCGGAGTCACCTAGTGCAG” the binding signal was 8210 fluorescence intensity (a.u.). For “GTTCTACCAGGGGTCCTGTGTGTGCGTGCATGCATGGCGACGGAGTCACCTAGTGCAG”, the binding signal was 8550 fluorescence intensity (a.u.). “CTAGAAATCGCCACGTTTCATCCACCCCGCCAACCCCATGCGGAGTCACCTAGTGCAG” was tested, and the binding signal was 8440 fluorescence intensity (a.u.). With “TCTACTCCTTTTGTCATTATTGTCCTCTAATTTCGTTTTGCGGAGTCACCTAGTGCAG” the binding signal was 11200 fluorescence intensity (a.u.). In the case of “TCTCTCTTTTCCTCTGCATCTCCTGCTCCTTTTTGTTTTGCGGAGTCACCTAGTGCAG”, the binding signal is reported as 8160 fluorescence intensity (a.u.). With “GGTAATTCGTACTTTTCCCCTGCTTATATGATCATTGTATCGGAGTCACCTAGTGCAG” the binding signal was 10000 fluorescence intensity (a.u.). For “CCAGCCACCATCCCCATATCCCTGCTCTCTGTCTTTCTCCCGGAGTCACCTAGTGCAG”, the binding signal was 11000 fluorescence intensity (a.u.). For “ATACTCGTTTTTCGTTTTTTTTTTAGTTGTGCTGCTACCTCGGAGTCACCTAGTGCAG”, the binding signal was 10100 fluorescence intensity (a.u.). In the case of “GGTAATGGGAGAGGCTGATGTGGCGTGAAATCTCTTGCGTCGGAGTCACCTAGTGCAG”, the binding signal is reported as 9020 fluorescence intensity (a.u.). With “TTCCATTCCGTTAACTTGCACTCCTGTCAATTTCTATATACGGAGTCACCTAGTGCAG” the binding signal was 8360 fluorescence intensity (a.u.). “AGATGCTCATAGGGGTAGGGTGGCCAGCGAGGCGCCTGTGCGGAGTCACCTAGTGCAG” was tested, and the binding signal was 9960 fluorescence intensity (a.u.). In the case of “TGAAGTTGCATTTAATCTCTTTGCATCCAAGTATTTGGAACGGAGTCACCTAGTGCAG”, the binding signal is reported as 8980 fluorescence intensity (a.u.). With “TGGCATGCTTCAGGAAGCTGATATAGGGGTTGGCATTAGTCGGAGTCACCTAGTGCAG” the binding signal was 10200 fluorescence intensity (a.u.). In the case of “TGCCGCGGGGTGACCTGTGTACTGTGATCTATATCCTCTCCGGAGTCACCTAGTGCAG”, the binding signal is reported as 8100 fluorescence intensity (a.u.). In the case of “ACCATCCAGCGCGTAACCGATTCCCTGTACATTCGGCCGCCGGAGTCACCTAGTGCAG”, the binding signal is reported as 9080 fluorescence intensity (a.u.). “ACGCCTTCTTGCTCTCTATCTCTCTCTTTTTCGCATCCTTCGGAGTCACCTAGTGCAG” was tested, and the binding signal was 11100 fluorescence intensity (a.u.). “CTCTACTCGCCAATTTTCCCTTCTTATTTTCGCTATTTCTCGGAGTCACCTAGTGCAG” was tested, and the binding signal was 13800 fluorescence intensity (a.u.). For “CGGCCCGGCCCATCTATCTCCCAGCTCGCCCGGTCCTTCTCGGAGTCACCTAGTGCAG”, the binding signal was 8610 fluorescence intensity (a.u.). In the case of “ACTATTTTTTTACTAGTTTACTCTATTGTTAACATGAATACGGAGTCACCTAGTGCAG”, the binding signal is reported as 9660 fluorescence intensity (a.u.). In the case of “TCGAAAGTTGGAAGTTTGGGGTAGTTGCGGGTGAACTAAACGGAGTCACCTAGTGCAG”, the binding signal is reported as 8930 fluorescence intensity (a.u.). “CCACCGTGTGGCAATCGATGTCCACGCCCTTGTCGCCACTCGGAGTCACCTAGTGCAG” was tested, and the binding signal was 8400 fluorescence intensity (a.u.). With “CACCTTCTTTGATCACATGCCTACTTAGCAGTACTTACCACGGAGTCACCTAGTGCAG” the binding signal was 10700 fluorescence intensity (a.u.). In the case of “CTCTCTCTTTCTCTCTCTCTCTGCACAACTAAAACTATATCGGAGTCACCTAGTGCAG”, the binding signal is reported as 10100 fluorescence intensity (a.u.). “GCCGCCACCCACCCACTCGACCGTTGCCACCGCTGCTTCCCGGAGTCACCTAGTGCAG” was tested, and the binding signal was 11400 fluorescence intensity (a.u.). In the case of “GCAACGCACACCCGCACGCACGCGCCCACGCCAACGCCACCGGAGTCACCTAGTGCAG”, the binding signal is reported as 8370 fluorescence intensity (a.u.). In the case of “TTCTCTGTTCCTCCACATTCCTCTCTACCTCCTCATTCATCGGAGTCACCTAGTGCAG”, the binding signal is reported as 11800 fluorescence intensity (a.u.). With “GCTTGTACTATCACGTTTTGGTTTGATCTTGTAGCCCACACGGAGTCACCTAGTGCAG” the binding signal was 9700 fluorescence intensity (a.u.). In the case of “CGAAAATTCCCTGAATATTTGATCTTTCTGTTGACCAATTCGGAGTCACCTAGTGCAG”, the binding signal is reported as 8910 fluorescence intensity (a.u.). For “TCGCGATTTTCATGCAAACTGTACAATTAGTTTTTTCTTTCGGAGTCACCTAGTGCAG”, the binding signal was 9710 fluorescence intensity (a.u.). “TCTTATATGATCAACTGTGATGCCACCCAATTATCCGCAGCGGAGTCACCTAGTGCAG” was tested, and the binding signal was 8040 fluorescence intensity (a.u.). In the case of “ACACCAACCACGCCCAATATTTGCAGATAGCCCACTGGTTCGGAGTCACCTAGTGCAG”, the binding signal is reported as 8570 fluorescence intensity (a.u.). With “GTTGGATAACTGCAGTGTAGTGAACTCCCTGGTGTTTTTTCGGAGTCACCTAGTGCAG” the binding signal was 9820 fluorescence intensity (a.u.). In the case of “ACCACCGGTCACCACCACACGCTCCCTCGTCGACATCTATCGGAGTCACCTAGTGCAG”, the binding signal is reported as 8300 fluorescence intensity (a.u.). “GCCCACCATTTCCCCAAACATTTCCACACATTCCTACAATCGGAGTCACCTAGTGCAG” was tested, and the binding signal was 13600 fluorescence intensity (a.u.). “AAAGTTTATATTCCTATGTTTGATTCGTATTCTCGTGACCCGGAGTCACCTAGTGCAG” was tested, and the binding signal was 8950 fluorescence intensity (a.u.). “AGAATTTTGGTTAATATCGTATTATGTCTTATATGAATTACGGAGTCACCTAGTGCAG” was tested, and the binding signal was 8570 fluorescence intensity (a.u.). “TGCTATTTACTACAATAACCATGGCTACTGCTATTAGGACCGGAGTCACCTAGTGCAG” was tested, and the binding signal was 8300 fluorescence intensity (a.u.). In the case of “CAAGCGGGTCCCATATCTTTTTTATTTGTTTTGCTGACTACGGAGTCACCTAGTGCAG”, the binding signal is reported as 9510 fluorescence intensity (a.u.). “GGCCGAGGCCGCGCAGGACGGCGCCCTTGGACAGCAACGCCGGAGTCACCTAGTGCAG” was tested, and the binding signal was 9480 fluorescence intensity (a.u.). In the case of “TATAATACTTGACGTGTGCACTTAATTAACTCTTTTTGGCCGGAGTCACCTAGTGCAG”, the binding signal is reported as 8270 fluorescence intensity (a.u.). In the case of “TCTCTTGTGTGGTTAATATCTATATCTATCCTGGTGTAGTCGGAGTCACCTAGTGCAG”, the binding signal is reported as 8290 fluorescence intensity (a.u.). For “ACTTTGACCTGTTGTATCTCGCTAAGTCATCTCGTGGGGCCGGAGTCACCTAGTGCAG”, the binding signal was 10900 fluorescence intensity (a.u.).
